This assay is described as follows: qHTS Assay to Find Inhibitors of Chronic Active B-Cell Receptor Signaling. To be noted: ABC-DLBCL IkBa-CBG/CBR reporter, luminescence ratio (green luciferase fused to IkBa over red control in TMD8 lymphoma cells), 4 h. In a few lines: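 Cell line TMD8 (human ABC DLBCL), stably expressing tet-inducible CBG68-IkBa fusion and CBR; IMDM/0.5% FBS; cpd up to 46 uM; dox induction, 4 h, 37C/5% CO2; dual luminescence; green/red ratio; MG132 control.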
Background: In qHTS, concentration-response curves come from the screen itself.

Where [1] appears, read: measured here: CBR red luminescence, cell number.
The mark [2] stands for this setting: measured here: IkBa-CBG green luminescence.

This is one part of the list. The main result of the screen is listed elsewhere. These columns were measured beside it and carry no call. Most of these compounds were active or inconclusive in the main read-out, so they are no random draw. The note in brackets gives the kind of curve behind each potency; many fits are weak.

The AC50 is the midpoint of the concentration-response curve, whichever way the signal moves. For the molecule `COCCn1cc(C(=O)c2ccccc2OCC(=O)Nc2cc(C)on2)cc(C#N)c1=O`, the AC50 was 4.11 µM [falling, single point] under setting [1] and 5.17 µM [rising, partial curve, poor fit] under setting [2].

As for `O=C(Nc1ccc(-c2nnn(CC(=O)N3CCN(C(=O)c4ccco4)CC3)n2)cc1)c1ccccc1F`, the AC50 under setting [1] is 14.1 µM [falling, single point].

Regarding `COc1ccc(C(=O)OC(C)CN2CCOCC2)cc1OC` (configuration not stated), under setting [1], the AC50 was 35.5 µM [rising, single point].

On to `COc1cccc2cc(-c3nnc(-c4ccccc4)o3)c(=O)oc12`, for which the AC50 under setting [1] is 2 µM [falling, partial curve, poor fit].

As to `Cc1oc(-c2ccc(Cl)cc2)nc1CN1CCC(C(=O)NCCCN2CCOCC2)CC1`, under setting [1], the AC50 is 35.5 µM [falling, single point].

For `O=C(O)CCC(=O)Nc1ccccc1C(=O)NCc1ccco1`, under setting [1], the concentration at half-maximal activity (AC50) is 13 µM [rising, single point].

As for `COc1ccc(CNCCc2ccc(Cl)cc2)cc1OCc1ccccc1`, the AC50 under setting [1] is 1 µM [falling, full curve, poor fit].

Consider `COc1ccc(S(=O)(=O)Nc2cc(Cl)ccc2OC)cc1`, for which the AC50 under setting [1] was 15.8 µM [rising, single point] and the AC50 under setting [2] is 22.4 µM [falling, single point].

For the molecule `C=CCn1c(SCc2ccc(Br)cc2F)nc2cc(C(=O)O)ccc2c1=O`, under setting [1], the AC50 is 5.62 µM [falling, single point].

Turning to `Cc1cc(/C=N/NC(=O)c2nn(C)cc2Cl)c(C)n1-c1cccc(Br)c1`, under setting [1], the AC50 was 20.6 µM [falling, single point].

Regarding `CC(=O)c1ccccc1OC(=O)c1c(F)cccc1F`, under setting [1], the AC50 was 28.2 µM [rising, single point].

Consider `O=C(CNc1ccccc1F)Nc1cccc(S(=O)(=O)N2CCCCC2)c1`, for which the AC50 under setting [1] is 18.4 µM [falling, single point].

As to `CC1CCN(Cc2cc(=O)oc3ccc4ccccc4c23)CC1`, the concentration at half-maximal activity (AC50) under setting [1] was 5.62 µM [falling, single point].

On to `COc1ccc(-c2csc(NC(C)=O)n2)cc1OC`, for which the AC50 under setting [1] is 29.1 µM [falling, single point].

In the case of `CCCCn1c2c(c(=O)n(C)c1=O)C(c1ccc(OC)cc1)N1CCCCCC1=N2` (configuration not stated), under setting [1], the concentration at half-maximal activity (AC50) is 10 µM [falling, partial curve, poor fit].

For the molecule `COC(=O)c1cc(=O)nc2sccn12`, under setting [1], the AC50 is 6.51 µM [rising, single point].

As to `Cc1cc(Cl)ccc1OCC(O)CNCCc1ccc(S(N)(=O)=O)cc1` (configuration not stated), under setting [1], the AC50 was 7.94 µM [falling, partial curve, poor fit].

Consider `CC[C@H](C)[C@H](NS(=O)(=O)c1ccc(C)cc1)C(=O)N1CCC(C(=O)N[C@@H](C)C(=O)O)CC1`, for which, under setting [1], the AC50 was 17.8 µM [rising, partial curve, poor fit].

As to `C[C@H](CO)N1C[C@H](C)[C@@H](CN(C)Cc2ccc(Cl)c(Cl)c2)Oc2c(NC(=O)CCC(F)(F)F)cccc2C1=O`, under setting [1], the AC50 was 20.6 µM [falling, single point].

As for `CCCCOc1ccc(Cl)cc1CSc1nnc(C)n1N`, the AC50 under setting [1] was 6.51 µM [rising, single point].

As to `O=c1c2ccccc2oc2ccc(NCCCN3CCOCC3)cc12`, the AC50 under setting [1] is 3.16 µM [rising, single point].

With `Cc1cc(-n2c(SCc3ccccc3F)nc3[nH]ncc3c2=O)ccc1Cl`, the AC50 under setting [1] is 22.4 µM [falling, single point].

For the molecule `CCc1ccc2c(c1)C1(NN=C(c3ccccc3)S1)C(=O)N2` (configuration not stated), under setting [1], the AC50 is 29.1 µM [falling, single point].

`CCOc1cc(N2CCOCC2)c(OCC)cc1NC(=O)c1c(C)noc1C`: the AC50 under setting [1] is 0.92 µM [rising, full curve, poor fit].

`CCCN1CC(=O)N2Cc3[nH]c4ccccc4c3C[C@H]2C1=O`: under setting [1], the AC50 was 15.8 µM [rising, single point].

As for `Cc1ccc(C(=O)NC2CCCCCCC2)cc1S(=O)(=O)N1CCOCC1`, under setting [1], the half-maximal activity concentration (AC50) was 0.092 µM [rising, full curve, poor fit].

Take `COc1ccccc1CCNS(=O)(=O)CCNC(=O)c1ccc2c(c1)OCO2`: the AC50 under setting [1] is 6.51 µM [rising, single point].

For `O=c1c(C/C=C/c2ccccc2)c(O)ccn1CCc1c[nH]c2ccccc12`, the half-maximal activity concentration (AC50) under setting [1] is 35.5 µM [falling, single point].

Regarding `CN(C)S(=O)(=O)c1cccc(NC(=O)c2cc3c(cc2Cl)N2CCCCCC2=NS3(=O)=O)c1`, the AC50 under setting [1] is 3.98 µM [rising, full curve, poor fit].

Consider `CCCc1nc2sc(C(=O)OCC)c(N)c2c2c1COC(C)(C)C2`, for which the AC50 under setting [1] is 2.91 µM [rising, partial curve, poor fit].

For the molecule `C=C(C)C1Cc2c(C)nn(-c3nc(C)cc(C)n3)c2C1` (configuration not stated), the half-maximal activity concentration (AC50) under setting [1] is 10 µM [rising, single point].

Take `COc1ccc(/C=N/NC(=O)c2ccc(COc3cccc4cccnc34)cc2)cc1OC`: the AC50 under setting [1] is 35.5 µM [falling, single point].

With `C/C(=N\NC(=O)c1cc(C(C)C)[nH]n1)c1ccco1`, the AC50 under setting [1] was 13 µM [falling, partial curve].

For `Cc1cccc(C(=O)NC2CCN(CC(=O)NCc3cccs3)CC2)c1`, under setting [1], the AC50 is 14.1 µM [falling, partial curve, poor fit].

`Cc1n[nH]c(C)c1CCCOc1ccccc1`: under setting [1], the AC50 was 16.4 µM [rising, single point].

With `Cc1ccc(-c2nc3ccccc3n3c(C)nnc23)cc1`, the AC50 under setting [1] is 5.62 µM [falling, single point].

`Cc1cc2cc(OCC(=O)O)ccc2n1C`: the concentration at half-maximal activity (AC50) under setting [1] was 2.31 µM [falling, partial curve, poor fit].

`CC(Sc1cccc[n+]1[O-])C(=O)NC1CCCCC1C` (configuration not stated): under setting [1], the AC50 was 7.31 µM [rising, partial curve].

With `COCCn1c(=O)[nH]c(=O)c2c(C(F)(F)F)cc(-c3cccs3)nc21`, under setting [1], the AC50 is 20.6 µM [rising, single point].

Take `COc1ccc(CNC(=O)CN(c2ccc(C(C)=O)cc2)S(=O)(=O)c2ccc(C)cc2)cc1OC`: the concentration at half-maximal activity (AC50) under setting [1] is 25.9 µM [rising, single point].

As for `O=C(Nc1ccccc1C(=O)Nc1ccc2c(c1)OCO2)c1ccco1`, under setting [1], the AC50 was 35.5 µM [falling, single point].

On to `COc1ccccc1C(=O)Nc1ccc2c(c1)nc1n2CCSC1`, for which the AC50 under setting [1] is 12.6 µM [falling, single point].

For `CCC(Cc1ccccc1)NS(=O)(=O)c1ccc2c(c1)NC(=O)C(C)S2` (configuration not stated), under setting [1], the AC50 is 3.98 µM [falling, full curve].

Take `COc1cc2sc(-c3ccc(S(C)(=O)=O)cc3)c(C(=O)NCCCCO)c2cc1OC`: under setting [1], the AC50 is 18.4 µM [rising, single point].

On to `CC1=CC(=NOC(=O)/C=C/c2ccccc2)C=C(C)C1=O`, for which the half-maximal activity concentration (AC50) under setting [1] is 35.5 µM [falling, single point].

Turning to `O=C(c1ccncc1)c1ccc(NS(=O)(=O)c2ccc(Br)s2)cc1`, the AC50 under setting [1] is 35.5 µM [falling, single point].

On to `CCCn1c(O)c(C=Nc2ccccc2)sc1=S`, for which, under setting [1], the AC50 is 4.47 µM [falling, single point].

In the case of `Cc1ccc2nc(COc3ccc(Cl)cc3)cc(=O)n2c1`, under setting [1], the AC50 was 0.398 µM [rising, partial curve, poor fit].

For the molecule `CCOC(=O)C1CCN(c2ncnc3cc(OC)c(OC)cc23)CC1`, the AC50 under setting [1] is 31.6 µM [rising, single point].

On to `COc1ccc(C2=NN(C(=O)c3cccc([N+](=O)[O-])c3)C(c3cccc([N+](=O)[O-])c3)C2)cc1` (configuration not stated), for which the AC50 under setting [1] is 25.9 µM [falling, single point].

With `COC(=O)CC(NC(=O)c1ccc(C)cc1)c1ccc2c(c1)OCO2` (configuration not stated), the AC50 under setting [1] was 1.64 µM [falling, partial curve, poor fit].

Regarding `O=C(c1ccc(F)cc1)c1cnc(Nc2ccccc2)s1`, the AC50 under setting [1] is 1.58 µM [falling, full curve].

Regarding `CN(C)C(=O)N1CCCC(C(=O)NCc2ccccc2Cl)C1` (configuration not stated), the AC50 under setting [1] is 23.1 µM [rising, single point].

As to `COc1ccc(C2CC(c3ccccc3)=NN2c2ccc(N)cc2)cc1` (configuration not stated), the AC50 under setting [1] is 7.31 µM [rising, partial curve, poor fit].

On to `COc1ccc(N(CC(=O)Nc2cccc3ccccc23)S(C)(=O)=O)c(OC)c1`, for which the AC50 was 4.47 µM [rising, partial curve, poor fit] under setting [1] and 12.6 µM [falling, single point] under setting [2].

Turning to `COc1ccc(CN2CCCC(C(=O)c3cccc(C(F)(F)F)c3)C2)cc1O` (configuration not stated), the AC50 under setting [1] was 0.562 µM [falling, full curve, poor fit].

Regarding `Cc1ccc(COn2c(-c3ccc(Cl)cc3Cl)nc3ncccc32)cc1`, the AC50 under setting [1] was 13 µM [falling, partial curve, poor fit].

Regarding `Cc1ccc(OCCOc2cccc(Br)c2)c([N+](=O)[O-])n1`, the AC50 under setting [1] was 6.51 µM [rising, partial curve].

Consider `CC1(C)Oc2ccc(C(=O)NC3CCCC3)cc2N(CC(=O)NC2CCCC2)C1=O`, for which the AC50 under setting [1] is 23.1 µM [rising, single point].

On to `CCCn1c(SCC(=O)Nc2cccc(NC(C)=O)c2)nnc1C(C)C`, for which the AC50 under setting [1] is 1 µM [falling, full curve, poor fit].

Consider `COc1ccccc1CN(C)C(=O)c1cc(-c2cccs2)nc2ccccc12`, for which, under setting [1], the AC50 was 22.4 µM [falling, single point].

Regarding `CSCC[C@H](NC(=O)C1CCN(C(=O)[C@H](Cc2ccccc2)NS(=O)(=O)c2ccc(C)cc2)CC1)C(=O)O`, the concentration at half-maximal activity (AC50) under setting [1] is 7.08 µM [rising, full curve, poor fit].

For the molecule `C=CCN=C(NC#N)SCC(=O)c1cccc(OC)c1`, under setting [1], the AC50 was 14.1 µM [falling, single point].

On to `Cc1c(NC(=O)COC(=O)/C=C/c2cccc(Cl)c2)c(=O)n(-c2ccccc2)n1C`, for which, under setting [1], the AC50 is 3.26 µM [rising, full curve, poor fit].

(Values after PubChem BioAssay AID493014 (National Center for Advancing Translational Sciences (NCATS), 2011).)
